In the supplement of paper PMC10338343:
± gives the standard deviation. This is one part of the list. Many entries were measured with a wide error.

System: EfPiwi piRISC loaded with L1MC piRNA (26 nt)
Assay: pre-steady-state target cleavage rate (min^-1); guide: L1MC piRNA 5'p-UAACUAAAUACUAUGCAAGCUGUAGG; MIWI and MILI are mouse PIWI proteins and EfPiwi is from a freshwater sponge; tags in brackets are library labels; higher = faster piRNA-guided slicing of the target
In short: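 In this Cleave-'n-Seq assay, uncleaved targets were sequenced and normalised to depth and to weakly complementary targets. They came from a transcribed, DNA-blocked target RNA library […] mixed with 1 nM active affinity-purified piRISC carrying one synthetic guide, with or without 500 nM GTSF1 partner protein, in HEPES–potassium acetate buffer at 33 °C for 0–8 or 0–960 min. After three trials were pooled and k3 was capped at 0.0001 min^-1, the pre-steady-state cleavage rate was obtained from a burst-and-steady-state fit.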

[1] = auxiliary factor: 500 nM Ephydatia muelleri Gtsf1
[2] = auxiliary factor: none (no Gtsf1)

Sequence	pre-steady-state target cleavage rate [1]	pre-steady-state target cleavage rate [2]
UCCUGCUACAGCUAGCAUAGUAUAUAGUUA	0.00485 ± 0.0017	0.000514 ± 0.011
UCCUGGAACAGCUUGCAUAGUAUUUAGUUG [g2:g23:cont:t1G]	0.0115 ± 0.0034	0.000254 ± 0.018
UCCUGGAUGUCGAACGUAAGUAUUCUAGUUA	0.000109 ± 0.023	0.000429 ± 0.016
UCCUGCUACAGCUUGGAUAGUAUUUUGUUA	0.00556 ± 0.002	0.000632 ± 0.0092
UCCUGGAUGUGCUUGCUUAGAAUUUAGUUA	0.000414 ± 0.0092	0.000129 ± 0.075
UCCUGGAUCAGCUAGCAUAGUAUUAAGUUA	0.00318 ± 0.002	0.000534 ± 0.013
UCCUGGAUCAGCUUGCUUACUAUUUAGUUA	0.0032 ± 0.0024	0.000359 ± 0.016
UCCUGGAUCAGCUUGCAUAGUAUUUACUUA	0.00218 ± 0.0028	< 0.0001
UCCUGGAUGAGCUAGCAUAGUAUUAAGUUA	0.00293 ± 0.0024	0.000739 ± 0.0094
UCCUGCUACAGCUUCGCAUAGUAUUUAGUUA	0.0225 ± 0.0071	0.000624 ± 0.011
UCCUGGAUGUCCUUGCAUAGUAUUUACGUUA	0.00179 ± 0.0034	0.000563 ± 0.011
UCCUGGUACAGCUUGCAUACUAUUUAGUUA	0.00275 ± 0.0031	0.00025 ± 0.046
UCCUGGAUGUCGAUGCAUAGUAUCUAGUUA	0.00277 ± 0.0041	0.000505 ± 0.013
UCCUGGUACAGGUUGCAUAGUAUUUAGUUA	0.0211 ± 0.0053	0.000498 ± 0.018
UCCUGGUACACGCUUGCAUAGUAUUUAGUUA	0.00613 ± 0.0031	0.00165 ± 0.0095
UCCUGGAUGAGCUUGCAUAGUACUUUAGUUA	0.00806 ± 0.003	0.00423 ± 0.0036
UCCUGCUACUGCUUGCAUUGUAUUUAGUUA	0.00835 ± 0.0023	0.000996 ± 0.0065
UCCUGGAACAGCUUGCAUAGGAUUUAGUUA	0.00146 ± 0.0027	0.00109 ± 0.0078
UCCUGGAUGUGCUUGCAUAGUAUUUAAUUA	0.113 ± 0.038	0.000695 ± 0.017
UCCUGCUACAGCUUGCAUUGAAUUUAGUUA	0.000552 ± 0.0067	0.00023 ± 0.023
UCCUGGAUGAGCUUGCAAAGUAUUAAGUUA	0.00202 ± 0.0036	0.00043 ± 0.021
UCCUGGAUGAGCUUGCAUAGUAUAUAGUUA	0.00625 ± 0.0026	0.00169 ± 0.006
UCCUGGUACUGCUUGCAUAGUAUUUUGUUA	0.00243 ± 0.0031	0.000175 ± 0.081
UCCUGGAUGUCGAACGUAUGUAUUUAGUAA	0.000243 ± 0.021	< 0.0001
UCCUGCUACAGCUUGCAUAGUAUUUAGUUG [g2:g25:cont:t1G]	0.00685 ± 0.0019	0.000678 ± 0.0093
UCCUGGAAGUCCUUGCAUAGUAUUUAGUUA	0.0092 ± 0.0031	0.000749 ± 0.0077
UCCUGGAUCAGCAUGCAUAGUAUUUUGUUA	0.00227 ± 0.0039	0.00033 ± 0.026

Sequence	pre-steady-state target cleavage rate [1]	pre-steady-state target cleavage rate [2]
UCCUGGAUGUGCUUGCAUAGUAGUUUAGUUA	0.0051 ± 0.0034	0.00262 ± 0.0063
UCCUGGAACAGGUUGCUUAGUAUUUAGUUA	0.00924 ± 0.0022	0.000725 ± 0.013
UCCUGGUACAGCUUGCCUAGUAUUUAGUUA	0.00475 ± 0.0026	0.000908 ± 0.011
UCCUGGAUGUGCUAGCAUAGUAAUUAGUUA	0.00101 ± 0.0034	0.000367 ± 0.023
UCCUGGAUCAGCUUGCAUAGUAAUUAGUUA	0.0264 ± 0.0082	0.00382 ± 0.0043
UCCUGGAAGAGCUUGCAUAGUAUUAAGUUA	0.00519 ± 0.0018	0.000687 ± 0.014
UCCUGGAUCAGGUUGCAUUGUAUUUAGUUA	0.00567 ± 0.0021	0.000239 ± 0.034
UCCUGGAUGAGCAUGCAUAGUAUUUAGAUA	0.00142 ± 0.0044	0.000828 ± 0.0084
UCCUGGAACAGGUUGCAUAGAAUUUAGUUA	0.00258 ± 0.0014	0.000268 ± 0.033
UCCUGGAUCAGCUUGGAUAGUAUAUAGUUA	0.0019 ± 0.0039	0.000556 ± 0.016
UCCUGGAUGAGCUUGCUAUGUAUUUAGUUA	0.00134 ± 0.0051	0.000614 ± 0.013
UCCUGCUACAGCUUGCACAGUAUUUAGUUA	0.0133 ± 0.0041	0.000625 ± 0.0089
UCCUGGAUGUCGAUGCAUUGUAUAUAGUUA	0.000203 ± 0.019	0.000305 ± 0.025
UCCUGGAUGUGCUUGCAUAGUAUUUAUGUUA	0.00172 ± 0.0041	0.000311 ± 0.042
UCCUGCUACAGCUUGCAUAGAAUUUAGUAA	0.00358 ± 0.0016	0.000353 ± 0.015
UCCUGGAUGAGCUUGCUUAGUAUUUACUUA	0.00313 ± 0.0034	0.000578 ± 0.016
UCCUGGAUCAGCUUGCAUAGUAUGUAGUUA	0.0171 ± 0.0042	0.0179 ± 0.0092
UCCUGGAUGAGCUUGCAUAGUAUUUAGUCUA	0.00413 ± 0.0026	0.000224 ± 0.035
UCCUGGAUGUGCUUGCAUAGUAUUAUAGUUA	0.00369 ± 0.004	0.00104 ± 0.01
UCCUGGAUCAGCUUGCAUAGUUUUUUGUUA	0.00148 ± 0.0026	0.000207 ± 0.019
UCCUGGUACAGCAUGCAUAGUAUUUACUUA	0.00168 ± 0.0031	0.000604 ± 0.015
UCCUCCUACAGCUUGCAUAGUUUUUUCAAA	0.00481 ± 0.0034	0.000875 ± 0.0089
UCCUGGAUGAGCUUGGAUAGUAUAUAGUUA	0.000315 ± 0.029	0.000131 ± 0.07
UCCUGGAUCAGCCUUGCAUAGUAUUUAGUUA	0.0303 ± 0.0094	0.000578 ± 0.014
UCCUGCUACAGCUUGCAUUGUAUUUUGUUA	0.00346 ± 0.0021	0.00081 ± 0.0082
UCCUGGUACAGCGUUGCAUAGUAUUUAGUUA	0.00749 ± 0.0028	0.000208 ± 0.066
UCCUGGAUGUGCCUGCAUAGUAUUUAGUUA	0.00933 ± 0.0036	0.000834 ± 0.013

A few values from the results shown:
Value of UCCUGGUACAGCGUUGCAUAGUAUUUAGUUA under pre-steady-state target cleavage rate [1]: 0.00749 ± 0.0028
Value of UCCUGGUACAGCAUGCAUAGUAUUUACUUA under pre-steady-state target cleavage rate [2]: 0.000604 ± 0.015
